Data: article PMC9279153, “Structure of the Dicer-2–R2D2 heterodimer bound to a small RNA duplex”
These are yes or no findings as the source states them, for the method shown. For some of these results: In cells and extracts the contact can be indirect. Some entries that bind do so weakly or less than the wild type. Tags and fused reporters may be left off the sequences shown.

Chains of the proteins cited; added tags and fusions are not shown. Lines headed by an entry give the natural chain unless they say otherwise; changes in a name come on top. A line that says so, or that is headed by a name, gives the form on record, which may keep a tag or linker.
UniProt A1ZAW0: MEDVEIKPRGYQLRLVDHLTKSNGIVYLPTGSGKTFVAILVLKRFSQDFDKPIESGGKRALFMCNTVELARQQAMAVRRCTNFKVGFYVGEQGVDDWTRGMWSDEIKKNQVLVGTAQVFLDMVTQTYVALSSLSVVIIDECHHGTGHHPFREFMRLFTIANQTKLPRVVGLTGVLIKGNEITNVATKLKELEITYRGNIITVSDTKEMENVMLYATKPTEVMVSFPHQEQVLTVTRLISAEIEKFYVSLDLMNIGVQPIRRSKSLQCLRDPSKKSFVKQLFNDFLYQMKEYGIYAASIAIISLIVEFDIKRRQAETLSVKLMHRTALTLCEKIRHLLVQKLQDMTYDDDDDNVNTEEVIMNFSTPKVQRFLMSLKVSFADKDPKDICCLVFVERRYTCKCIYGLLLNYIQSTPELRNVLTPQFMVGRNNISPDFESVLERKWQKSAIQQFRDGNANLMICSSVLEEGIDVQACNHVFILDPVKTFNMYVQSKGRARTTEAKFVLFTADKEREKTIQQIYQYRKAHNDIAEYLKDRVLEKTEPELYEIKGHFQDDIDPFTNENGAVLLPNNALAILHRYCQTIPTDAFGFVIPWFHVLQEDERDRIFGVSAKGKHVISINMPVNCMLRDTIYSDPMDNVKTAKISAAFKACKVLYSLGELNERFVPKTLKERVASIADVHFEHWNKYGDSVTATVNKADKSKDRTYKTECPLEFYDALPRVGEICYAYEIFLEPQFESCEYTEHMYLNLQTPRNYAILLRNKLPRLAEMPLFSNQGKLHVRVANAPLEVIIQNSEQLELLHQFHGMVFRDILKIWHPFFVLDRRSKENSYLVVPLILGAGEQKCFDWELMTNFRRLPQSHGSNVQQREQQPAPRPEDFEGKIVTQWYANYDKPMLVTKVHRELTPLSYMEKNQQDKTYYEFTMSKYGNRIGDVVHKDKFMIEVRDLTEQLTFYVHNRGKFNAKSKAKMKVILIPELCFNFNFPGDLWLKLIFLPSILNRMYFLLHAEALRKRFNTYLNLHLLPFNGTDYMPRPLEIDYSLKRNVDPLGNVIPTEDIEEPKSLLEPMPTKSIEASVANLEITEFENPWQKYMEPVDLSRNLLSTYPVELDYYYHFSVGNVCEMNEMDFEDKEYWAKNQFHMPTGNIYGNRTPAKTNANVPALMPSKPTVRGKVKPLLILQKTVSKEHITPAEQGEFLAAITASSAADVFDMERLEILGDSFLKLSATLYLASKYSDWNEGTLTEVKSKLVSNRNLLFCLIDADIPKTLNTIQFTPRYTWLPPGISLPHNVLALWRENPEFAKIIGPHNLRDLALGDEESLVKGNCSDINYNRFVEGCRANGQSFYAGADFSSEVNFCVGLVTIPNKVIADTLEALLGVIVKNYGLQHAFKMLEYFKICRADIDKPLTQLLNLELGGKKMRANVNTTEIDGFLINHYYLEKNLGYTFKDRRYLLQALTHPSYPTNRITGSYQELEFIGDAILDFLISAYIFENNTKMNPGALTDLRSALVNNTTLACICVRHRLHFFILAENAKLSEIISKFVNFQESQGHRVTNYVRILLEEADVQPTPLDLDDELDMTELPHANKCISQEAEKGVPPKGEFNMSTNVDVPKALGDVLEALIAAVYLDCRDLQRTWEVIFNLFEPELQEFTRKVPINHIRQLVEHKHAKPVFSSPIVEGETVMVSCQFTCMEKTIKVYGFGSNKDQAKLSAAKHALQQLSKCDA
8×His-tagged Dicer-2 Δ1082–1115 (E1081-GGGS-G1116 mutant, truncated central linker) (A1ZAW0, form named): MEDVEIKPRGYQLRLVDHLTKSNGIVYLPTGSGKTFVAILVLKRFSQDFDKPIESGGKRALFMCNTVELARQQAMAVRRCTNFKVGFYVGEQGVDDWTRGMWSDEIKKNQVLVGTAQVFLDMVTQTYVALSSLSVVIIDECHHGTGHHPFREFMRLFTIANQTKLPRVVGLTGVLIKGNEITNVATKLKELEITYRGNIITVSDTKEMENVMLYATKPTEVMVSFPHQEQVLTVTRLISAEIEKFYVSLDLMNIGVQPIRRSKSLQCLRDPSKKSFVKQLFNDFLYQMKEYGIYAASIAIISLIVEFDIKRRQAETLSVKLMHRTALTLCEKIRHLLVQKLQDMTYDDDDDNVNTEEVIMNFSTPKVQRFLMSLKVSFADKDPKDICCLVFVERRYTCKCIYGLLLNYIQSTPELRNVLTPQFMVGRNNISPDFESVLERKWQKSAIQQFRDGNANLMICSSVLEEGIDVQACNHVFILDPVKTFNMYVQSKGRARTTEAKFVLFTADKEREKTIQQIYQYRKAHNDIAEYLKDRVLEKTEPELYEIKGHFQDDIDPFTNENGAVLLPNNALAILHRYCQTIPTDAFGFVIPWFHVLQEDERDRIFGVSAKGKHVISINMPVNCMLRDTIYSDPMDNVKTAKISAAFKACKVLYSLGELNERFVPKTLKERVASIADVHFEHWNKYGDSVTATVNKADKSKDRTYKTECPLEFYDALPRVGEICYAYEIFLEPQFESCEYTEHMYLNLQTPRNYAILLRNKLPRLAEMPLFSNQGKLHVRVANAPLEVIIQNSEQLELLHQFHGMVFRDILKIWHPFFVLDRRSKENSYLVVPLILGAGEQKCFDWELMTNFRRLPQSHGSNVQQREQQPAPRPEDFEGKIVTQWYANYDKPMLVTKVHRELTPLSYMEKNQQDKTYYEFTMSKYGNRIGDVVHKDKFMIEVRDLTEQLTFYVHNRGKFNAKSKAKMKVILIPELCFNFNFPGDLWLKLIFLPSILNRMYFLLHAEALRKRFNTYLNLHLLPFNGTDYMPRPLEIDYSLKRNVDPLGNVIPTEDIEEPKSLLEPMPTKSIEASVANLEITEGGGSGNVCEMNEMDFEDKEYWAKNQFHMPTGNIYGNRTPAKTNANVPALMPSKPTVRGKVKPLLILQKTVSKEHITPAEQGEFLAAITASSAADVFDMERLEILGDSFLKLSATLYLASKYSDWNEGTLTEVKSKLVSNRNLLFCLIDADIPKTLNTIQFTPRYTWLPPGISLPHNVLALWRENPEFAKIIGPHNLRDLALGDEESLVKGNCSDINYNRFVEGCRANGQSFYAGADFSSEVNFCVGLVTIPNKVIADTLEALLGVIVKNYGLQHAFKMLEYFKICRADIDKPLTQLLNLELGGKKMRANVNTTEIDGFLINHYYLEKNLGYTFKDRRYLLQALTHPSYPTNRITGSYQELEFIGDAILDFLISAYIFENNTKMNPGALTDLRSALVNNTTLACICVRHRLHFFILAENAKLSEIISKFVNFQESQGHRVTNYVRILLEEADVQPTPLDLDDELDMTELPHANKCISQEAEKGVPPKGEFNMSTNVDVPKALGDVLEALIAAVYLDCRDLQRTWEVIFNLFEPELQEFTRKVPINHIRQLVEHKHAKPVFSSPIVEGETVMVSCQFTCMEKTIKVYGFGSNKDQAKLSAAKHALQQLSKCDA

Legend:
[1] = molecular target: T1, 3×Flag-tagged R2D2 (residues 1–311) (Drosophila) (UniProt Q9VLW8); assay: cryo-EM structure; Dicer-2–R2D2 co-purified from Sf9, mixed 1:2 with let-7 siRNA duplex and purified by gel filtration; 30 mM Hepes-KOH pH 7.4, 100 mM potassium acetate, 2 mM magnesium acetate, 1 mM DTT, 0.02% glycerol; 3.3 Å; both purified
T1 sequence: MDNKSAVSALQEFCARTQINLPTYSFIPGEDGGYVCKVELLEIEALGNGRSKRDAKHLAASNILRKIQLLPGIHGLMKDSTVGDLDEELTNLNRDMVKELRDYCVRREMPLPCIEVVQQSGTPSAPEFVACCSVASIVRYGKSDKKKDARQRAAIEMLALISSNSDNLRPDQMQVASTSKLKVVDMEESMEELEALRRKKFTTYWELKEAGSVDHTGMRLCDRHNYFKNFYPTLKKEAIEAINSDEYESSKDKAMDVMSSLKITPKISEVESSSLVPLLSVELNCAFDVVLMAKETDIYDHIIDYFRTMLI

[2] = molecular target: T1, 3×Flag-tagged R2D2 (residues 1–311) (Drosophila); assay: pull-down; 8×His–Dicer-2 (wild type or mutant) and 3×Flag–R2D2 co-expressed in Sf9; lysate on anti-Flag M2 magnetic beads 1 h; wash with 800 mM NaCl, 1% Triton-X 100; western blot with anti-Flag and anti-Dicer-2 antibodies; n = 3
[3] = molecular target: T1, 3×Flag-tagged R2D2 (residues 1–311) (Drosophila); assay: cryo-EM structure; Dicer-2–R2D2 heterodimer without RNA, co-purified from Sf9; 30 mM Hepes-KOH pH 7.4, 100 mM KCl, 2 mM MgCl2, 1 mM DTT, 0.02% glycerol; 3.3 Å; both purified

binding [1] | binding [2] | binding [3] | Substance
binds | binds |  | 8×His-tagged Dicer-2 (residues 1–1722), wild type (from UniProt A1ZAW0 1-1722) (enzyme)
 | binds |  | 8×His-tagged Dicer-2 Δ1082–1115 (E1081-GGGS-G1116 mutant, truncated central linker) (from UniProt A1ZAW0 1-1081; A1ZAW0 1116-1722) (enzyme)
 |  | binds | Dicer-2 (residues 1–1722), 8×His–GFP tag removed by TEV protease (from UniProt A1ZAW0 1-1722) (enzyme)
